Assay results as given in the supplement of paper PMC6078165.

Tested on: BT20
Assay: relative JC-1 red fluorescence (viability) vs pre-drug, coculture with fibroblast (fraction); higher = more viable cancer cells
Experimental: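 JC-1 labelled TNBC cells cocultured 1:1 (1,500 cells each) with CellTrace Violet stained primary or stromal fibroblasts in 384-well plates in FluoroBrite medium, treated with one of 42 anticancer drugs at 0.1, 1, 10 or 100 uM. JC-1 red fluorescence (mitochondrial integrity in cancer cells only) was read by plate reader every 8 h for 72 h. Values are normalised to each well's pre-drug value. The stock of one drug was tenfold lower, so its dose labels may be too high.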

CC[C@]1(O)C[C@H]2CN(CCc3c([nH]c4ccccc34)[C@@](C(=O)OC)(c3cc4c(cc3OC)N(C=O)[C@H]3[C@@](O)(C(=O)OC)[C@H](OC(C)=O)[C@]5(CC)C=CCN6CC[C@]43[C@@H]65)C2)C1 [Vincristine]
relative JC-1 red fluorescence
Details	8 h	16 h	24 h	32 h	40 h	48 h	56 h	64 h	72 h
10 µM, coculture fibroblast: C12385	0.891	0.871	0.855	0.809	0.759	0.729	0.706	0.685	0.668
10 µM, coculture fibroblast: H6013	0.9374	0.9208	0.905	0.861	0.836	0.829	0.843	0.832	0.831
10 µM, coculture fibroblast: H6019	0.8705	0.83	0.845	0.805	0.78	0.776	0.7604	0.749	0.7484
10 µM, coculture fibroblast: H6076	0.914	0.937	0.891	0.885	0.863	0.855	0.859	0.869	0.868
10 µM, coculture fibroblast: H6231	0.868	0.962	0.896	0.827	0.768	0.704	0.654	0.622	0.579
10 µM, coculture fibroblast: HADF	0.914	0.944	0.84	0.821	0.762	0.709	0.688	0.66	0.618
10 µM, coculture fibroblast: HCFa	0.95477	0.942	0.917	0.868	0.828	0.799	0.764	0.734	0.708
10 µM, coculture fibroblast: HCPF	0.9335	0.935	0.904	0.873	0.849	0.802	0.7609	0.765	0.722
10 µM, coculture fibroblast: HHSteC	0.9377	0.921	0.865	0.783	0.717	0.659	0.614	0.584	0.561
10 µM, coculture fibroblast: HMF	0.857	0.908	0.82	0.7576	0.72	0.6797	0.658	0.628	0.597
10 µM, coculture fibroblast: HPFa	0.948	0.8921	0.906	0.8308	0.8345	0.802	0.78	0.765	0.735
10 µM, coculture fibroblast: HUF	0.902	0.833	0.802	0.729	0.673	0.628	0.605	0.585	0.572
10 µM, coculture fibroblast: Hs5	0.959	0.944	0.8938	0.854	0.821	0.797	0.784	0.763	0.774
10 µM, coculture fibroblast: Hs27A	0.872	0.819	0.88	0.866	0.965	0.933	0.916	0.889	0.851
10 µM, coculture fibroblast: Hs343T	0.859	0.951	0.867	0.8	0.734	0.669	0.612	0.592	0.561
10 µM, coculture fibroblast: WS1	0.854	0.801	0.755	0.693	0.638	0.607	0.566	0.524	0.494
100 µM, coculture fibroblast: C12385	0.8707	0.844	0.796	0.751	0.718	0.702	0.691	0.676	0.664
100 µM, coculture fibroblast: H6013	0.985	0.949	0.951	0.943	0.924	0.897	0.8609	0.832	0.862
100 µM, coculture fibroblast: H6019	0.877	0.845	0.821	0.774	0.76	0.749	0.726	0.715	0.715
100 µM, coculture fibroblast: H6076	0.897	0.917	0.9	0.864	0.831	0.81	0.781	0.779	0.756
100 µM, coculture fibroblast: H6231	0.927	0.982	0.9209	0.8806	0.8434	0.8073	0.782	0.762	0.738
100 µM, coculture fibroblast: HADF	0.762	0.985	0.916	0.915	0.906	0.883	0.86	0.846	0.8132
100 µM, coculture fibroblast: HCFa	0.98	0.962	0.859	0.95	0.943	0.797	0.796	0.799	0.81
100 µM, coculture fibroblast: HCPF	0.91	0.989	0.9096	0.87877	0.8307	0.788	0.742	0.7271	0.687
100 µM, coculture fibroblast: HHSteC	0.946	0.925	0.943	0.904	0.853	0.812	0.822	0.733	0.868
100 µM, coculture fibroblast: HMF	0.831	0.887	0.888	0.8316	0.795	0.75	0.722	0.709	0.681
100 µM, coculture fibroblast: HPFa	0.9506	0.911	0.927	0.8687	0.87262	0.854	0.84	0.826	0.801
100 µM, coculture fibroblast: HUF	0.92689	0.904	0.916	0.87	0.858	0.842	0.849	0.852	0.85
100 µM, coculture fibroblast: Hs5	0.826	0.979	0.917	0.878	0.838	0.803	0.779	0.753	0.733
100 µM, coculture fibroblast: Hs27A	0.826	0.838	0.967	0.985	0.961	0.956	0.962	0.948	0.908
100 µM, coculture fibroblast: Hs343T	0.779	0.972	0.919	0.883	0.856	0.836	0.805	0.79	0.7696
100 µM, coculture fibroblast: WS1	0.874	0.855	0.829	0.79	0.759	0.75	0.736	0.722	0.708

The reference is the same well before dosing, and untreated signal decays as well.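 Fibroblast labels denote human fibroblasts, mainly primary ones from uterus (C12385, HUF), lung (H6013), bone (Hs27A), adrenal (HADF) and skin (WS1), plus mammary HMF and breast cancer-associated Hs343T. Cancer cells are basal-like or mesenchymal-like triple-negative breast cancer lines. A hit is a response shift exceeding 3x replicate standard deviation. The tissue of the other fibroblasts is not given here.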
